Source: PubChem BioAssay AID912 (NCATS, 2007).

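A cell-based FRET test of anthrax lethal toxin entry, tracked through the 460 nm emission signal; the cell line is not named here. Each compound was tested as a concentration series from about 0.0005 to 40 µM. The number is the fitted AC50 of the 460 nm signal alone; lower values mean a more potent effect. A falling signal goes with compounds filed as inhibitors or cytotoxic, a rising one with activators or fluorescent compounds (inferred from the filed classes).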

Values are in nM. Common to all entries: measured here: 460 nm channel. Part of the compounds only, not a random draw; the main read-out is not listed here. Potencies fitted to partial, single-point or poorly fitting curves are rough. The first word of each remark tells which way the curve ran; it can be opposite to the aim of the assay.

| # | Compound | AC50 (nM) | curve as filed |
|---|---|---|---|
| 1 | `Cc1ccc2cc(CN(Cc3ccco3)S(=O)(=O)c3c(C)ccc4nsnc34)c(=O)[nH]c2c1` | 5012 | rising, single point |
| 2 | `COc1ccc(-c2csc(NCc3ccco3)n2)cc1C` | 6310 | falling, partial curve |
| 3 | `CCCNC(=O)NC1C(NC(=O)NCCC)N(C)C(=O)N1C` (configuration not stated) | 5012 | rising, single point |
| 4 | `CCCCOc1ccc(-c2nnn(C(C)(C)C(=O)OC)n2)cc1` | 25118 | falling, single point |
| 5 | `Cc1cc(C)n(S(=O)(=O)c2ccc(Cl)c(Cl)c2Cl)n1` | 12589 | falling, single point |
| 6 | `CCCCCCc1ccc(O)cc1O` | 15848 | falling, partial curve, poor fit |
| 7 | `CCCN(CC1CC1)c1nc(C)nc(Nc2c(Cl)cc(Cl)cc2Cl)c1Cl` | 3981 | falling, full curve |
| 8 | `CSc1nc2oc3c(c2c2nncn12)CC(C)(C)SC3` | 12589 | rising, partial curve |
| 9 | `Cn1nc(-c2ccc(N3CCOCC3)c(NC(=O)COc3ccccc3)c2)c2ccccc2c1=O` | 3981 | rising, partial curve |
| 10 | `Cc1ccc(-c2nc(NC(=O)CSc3nnc4scc(-c5ccccc5)n34)ns2)cc1` | 5012 | falling, full curve, poor fit |
| 11 | `COc1ccc(C(=O)N2CCC3(CCCN(Cc4ccccc4)C3)CC2)cc1` | 3981 | falling, full curve |
| 12 | `CC(=O)c1c(C(C)=O)c(C)n(-c2nc(-c3cccs3)c(C)s2)c1C` | 501.2 | rising, single point |
| 13 | `COc1ccccc1-c1cc(C(F)(F)F)nc(S(=O)(=O)CCCC(=O)N2CCCCC2C)n1` (configuration not stated) | 794.3 | falling, full curve |
| 14 | `CCSC(=N)N` | 31622 | falling, single point |
| 15 | `CCC(C)Nc1ccc(NC(C)CC)cc1` (configuration not stated) | 10000 | falling, full curve |
| 16 | `Cc1ccc(N(C)C)cc1` | 12589 | rising, single point |
| 17 | `Cc1nc2cnc(N3CCNCC3)nc2n(Cc2ccc(F)cc2)c1=O` | 12589 | rising, single point |
| 18 | `CS(=O)(=O)Nc1ccc(Cc2noc(-c3ccc4[nH]cc(CCN)c4c3)n2)cc1` | 15848 | rising, partial curve |
| 19 | `CCOC(=O)c1[nH]c(C)c(C(=O)Nc2ccc(C)c(C)c2)c1C` | 7943 | falling, single point |
| 20 | `Cc1cccc(N2C(N)=NC(N)=NC23CCCCC3)c1` | 5012 | rising, single point |
| 21 | `COC(=O)C(Cc1ccc(O)cc1)NC(=O)CCC(=O)Nc1ccc(S(N)(=O)=O)cc1` (configuration not stated) | 1000 | rising, partial curve |
| 22 | `O=C(CCCn1c(=S)[nH]c2ccc(Br)cc2c1=O)N1CCN(c2ccccn2)CC1` | 6310 | falling, partial curve |
| 23 | `N#CCSc1nc2ccccc2c(=O)n1-c1ccccc1` | 7.943 | falling, full curve |
| 24 | `C[C@@]12C(=O)OC(=O)[C@@]1(C)[C@H]1CC[C@@H]2O1` | 1995 | falling, full curve |
| 25 | `CN(C)C(=O)c1ccc(-c2cncnc2NC2CCNCC2)cc1` | 12589 | falling, partial curve |
| 26 | `COc1ccc(Oc2ncc3nc(-c4cccs4)c(=O)n(Cc4cccs4)c3n2)cc1` | 1585 | rising, full curve, poor fit |
| 27 | `CC[C@@H]1CN2CCc3cc(OC)c(OC)cc3[C@H]2C[C@@H]1C[C@H]1NCCc2cc(OC)c(OC)cc21` | 125.9 | falling, full curve |
| 28 | `CC1CCN(c2ccccc2N)CC1` | 6.31 | falling, full curve, poor fit |
| 29 | `CN1CCN(c2ncc3nc(-c4cc(F)cc(F)c4)c(=O)n(C)c3n2)CC1` | 12589 | rising, partial curve |
| 30 | `O=C(Nc1ccc2snnc2c1)N1CCN(c2ccccc2)CC1` | 10000 | falling, single point |
| 31 | `COc1ccccc1S(=O)Cc1ccc(C(=O)NCc2ccccc2Cl)o1` (configuration not stated) | 12589 | falling, partial curve |
| 32 | `CCc1ccc(NC(=O)CC2NCCNC2=O)cc1` (configuration not stated) | 3.981 | falling, full curve, poor fit |
| 33 | `COc1ccc(-c2cc(C(=O)OC3CCOC3=O)c3ccccc3n2)cc1OC` (configuration not stated) | 5012 | falling, single point |
| 34 | `COc1ccc2[nH]cc(CCNc3ncncc3-c3ccccc3C)c2c1` | 19952 | falling, single point |
| 35 | `CCC/C=C(\CCC)C(NS(=O)(=O)c1cccs1)c1ccc(C(=O)OC)cc1` (configuration not stated) | 398.1 | falling, partial curve |
| 36 | `S=C=Nc1cccc(C2(N3CCCCC3)CCCCC2)c1` | 15848 | falling, partial curve |
| 37 | `N#CCCN1CCN(C(=S)c2ccc(-c3ccc(Cl)c(Cl)c3)o2)CC1` | 12589 | falling, partial curve |
| 38 | `CCn1ncc(Cl)c1C(=O)Nc1cc(Cl)ccc1Cl` | 12589 | falling, single point |
| 39 | `CCCc1nnc(NC(=O)CCN2C(=O)c3ccccc3C2=O)s1` | 6310 | falling, partial curve, poor fit |
| 40 | `O=C1C[C@H]2OCCC=C3CN4CC[C@@]56c7ccccc7N1[C@@H]5[C@H]2[C@H]3C[C@@H]46` | 12589 | falling, partial curve |
| 41 | `O=C(O)CCC(=O)N1CCN(c2ccc(C(=O)c3ccc(F)cc3)cc2)CC1` | 10000 | rising, single point |
| 42 | `O=c1cc(-c2ccc(O)c(O)c2)oc2cc(O[C@@H]3O[C@@H](CO)[C@@H](O)[C@@H](O)[C@H]3O)cc(O)c12` | 25118 | falling, partial curve |
| 43 | `CN1CCN(CCCNC(=O)c2cc3c(=O)n(C)c4ccccc4c3s2)CC1` | 10000 | falling, partial curve |
| 44 | `CCC(C)c1ccc2oc(-c3ccc(NC(=O)c4ncn[nH]4)cc3)nc2c1` (configuration not stated) | 1259 | falling, full curve |

Some entries from above, unchanged:

Compound,AC50 (nM),curve as filed
CSc1nc2oc3c(c2c2nncn12)CC(C)(C)SC3,12589,"rising, partial curve"
COc1ccccc1S(=O)Cc1ccc(C(=O)NCc2ccccc2Cl)o1 (configuration not stated),12589,"falling, partial curve"
CCc1ccc(NC(=O)CC2NCCNC2=O)cc1 (configuration not stated),3.981,"falling, full curve, poor fit"
CN(C)C(=O)c1ccc(-c2cncnc2NC2CCNCC2)cc1,12589,"falling, partial curve"
CCCCOc1ccc(-c2nnn(C(C)(C)C(=O)OC)n2)cc1,25118,"falling, single point"